# According to the supplement of paper PMC8728848:
# This is one part of the list.
# B1: LF82 (Escherichia coli) (protein)
# chain: ADWGPCRTASGDPFIFVTSFTKNIQNPTDNVTGQTYPDFYQWALGDKYSGVCECPSPNPTEARPTLYKTESTLAAGHNSTYFKITNNLEVSTRVYIANVGNVQVPFINKSNSQPGRECDQPTFGWTTGSKGQLSLYIAKPFVGEQNIPQTIIVSVFGTKKENVYSSVPISQVLLSGKVTVTQGCELAAGTSLDIDFGEYQAHDFKGRTGQPPQNVQKIQKELTFNCTNISDGVHIYLSLEGTPNAAYPSAISLGNADVGAVIEDGKGNILKPNDSNSLLEMNPGSLYEYVKRKVTTTITAYPVSTTGKLPAAGDYSGVATMHVELDGGGGGGGGGGATTDLGAKGTLKFSLKISQGHHHHHH
# How the values were obtained:
# Test in all cases: glycan array binding signal (z-score within array); higher = stronger binding
# Conditions in all cases: glycan notation: IUPAC condensed, linker removed
# [1] = target: GlcNAc(b1-4)GlcNAc(b1-4)GlcNAc(b1-4)GlcNAc(b1-4)GlcNAc(b1-4)GlcNAc
# Summary of the method: (§1)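 The binding signal is a Z-score computed within each array and averaged over linkers. Arrays of the same protein sequence at different concentrations or buffers were also averaged together. Data originate from 3228 arrays in the Consortium for Functional Glycomics database, kept only where the protein sequence was available.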
# [2] = target: GlcNAc(b1-4)[GlcNAc(b1-6)]GalNAc
# Summary of the method: as §1
# [3] = target: GlcNAc(b1-6)Gal(b1-4)GlcNAc
# Summary of the method: as §1
# GlcNAc(b1-6)GalNAc = target: GlcNAc(b1-6)GalNAc
# Summary of the method: as §1
# [4] = target: GlcNAc6S(b1-3)Gal(b1-4)GlcNAc
# Summary of the method: as §1
# Kdn(a2-3)Gal(b1-3)GalNAc = target: Kdn(a2-3)Gal(b1-3)GalNAc
# Summary of the method: as §1
# Kdn(a2-3)Gal(b1-3)GlcNAc = target: Kdn(a2-3)Gal(b1-3)GlcNAc
# Summary of the method: as §1
# Kdn(a2-3)Gal(b1-4)Glc = target: Kdn(a2-3)Gal(b1-4)Glc
# Summary of the method: as §1
# Kdn(a2-3)Gal(b1-4)GlcNAc = target: Kdn(a2-3)Gal(b1-4)GlcNAc
# Summary of the method: as §1
# [5] = target: Kdn(a2-3)Gal(b1-4)[Fuc(a1-3)]GlcNAc
# Summary of the method: as §1
# Kdn(a2-6)Gal(b1-4)GlcNAc = target: Kdn(a2-6)Gal(b1-4)GlcNAc
# Summary of the method: as §1
# [6] = target: Man(a1-2)Man(a1-2)Man(a1-3)Man
# Summary of the method: as §1
# [7] = target: Man(a1-2)Man(a1-2)Man(a1-6)[Man(a1-3)]Man
# Summary of the method: as §1
# Man(a1-2)Man(a1-3)Man = target: Man(a1-2)Man(a1-3)Man
# Summary of the method: as §1
# [8] = target: Man(a1-2)Man(a1-3)[Man(a1-2)Man(a1-6)]Man
# Summary of the method: as §1
# [9] = target: Man(a1-2)Man(a1-3)[Man(a1-2)Man(a1-6)]Man(a1-6)[Man(a1-2)Man(a1-2)Man(a1-3)]Man
# Summary of the method: as §1
# [10] = target: Man(a1-2)Man(a1-3)[Man(a1-2)Man(a1-6)]Man(a1-6)[Man(a1-2)Man(a1-2)Man(a1-3)]Man(b1-4)GlcNAc(b1-4)GlcNAc
# Summary of the method: as §1
# [11] = target: Man(a1-2)Man(a1-3)[Man(a1-6)]Man(a1-6)[Man(a1-2)Man(a1-3)]Man(b1-4)GlcNAc(b1-4)GlcNAc
# Summary of the method: as §1
# [12] = target: Man(a1-2)Man(a1-6)[Man(a1-3)]Man(a1-6)[Man(a1-2)Man(a1-2)Man(a1-3)]Man
# Summary of the method: as §1
# [13] = target: Man(a1-2)Man(a1-6)[Man(a1-3)]Man(a1-6)[Man(a1-2)Man(a1-2)Man(a1-3)]Man(b1-4)GlcNAc(b1-4)GlcNAc
# Summary of the method: as §1
# Man(a1-3)[Man(a1-6)]Man = target: Man(a1-3)[Man(a1-6)]Man
# Summary of the method: as §1
# [14] = target: Man(a1-3)[Man(a1-6)]Man(a1-6)[Man(a1-2)Man(a1-3)]Man(b1-4)GlcNAc(b1-4)GlcNAc
# Summary of the method: as §1
# [15] = target: Man(a1-3)[Man(a1-6)]Man(a1-6)[Man(a1-3)]Man
# Summary of the method: as §1
# [16] = target: Man(a1-3)[Man(a1-6)]Man(a1-6)[Man(a1-3)]Man(b1-4)GlcNAc(b1-4)GlcNAc
# Summary of the method: as §1
# [17] = target: Man(a1-3)[Man(a1-6)]Man(b1-4)GlcNAc(b1-4)GlcNAc
# Summary of the method: as §1
# [18] = target: Man(a1-3)[Man(a1-6)]Man(b1-4)GlcNAc(b1-4)[Fuc(a1-6)]GlcNAc
# Summary of the method: as §1
# Man(a1-6)Man = target: Man(a1-6)Man
# Summary of the method: as §1
# Man(b1-4)GlcNAc = target: Man(b1-4)GlcNAc
# Summary of the method: as §1
# MurNAc(b1-4)GlcNAc = target: MurNAc(b1-4)GlcNAc
# Summary of the method: as §1
# Neu5Ac(a2-3)Gal = target: Neu5Ac(a2-3)Gal
# Summary of the method: as §1
# [19] = target: Neu5Ac(a2-3)Gal(b1-3)GalNAc
# Summary of the method: as §1
# [20] = target: Neu5Ac(a2-3)Gal(b1-3)GalNAc(b1-3)Gal(a1-4)Gal(b1-4)Glc
# Summary of the method: as §1
# [21] = target: Neu5Ac(a2-3)Gal(b1-3)GalNAc(b1-4)Gal(b1-4)Glc
# Summary of the method: as §1
# [22] = target: Neu5Ac(a2-3)Gal(b1-3)GalNAc(b1-4)[Neu5Ac(a2-3)]Gal(b1-4)Glc
# Summary of the method: as §1
# [23] = target: Neu5Ac(a2-3)Gal(b1-3)GalNAc(b1-4)[Neu5Ac(a2-8)Neu5Ac(a2-3)]Gal(b1-4)Glc
# Summary of the method: as §1
# [24] = target: Neu5Ac(a2-3)Gal(b1-3)GalNAc6S
# Summary of the method: as §1
# [25] = target: Neu5Ac(a2-3)Gal(b1-3)GlcNAc
# Summary of the method: as §1
binder,measurement,setting,value
B1,glycan array binding signal (z-score),[1],-1.17
same,glycan array binding signal (z-score),[2],-0.29
same,glycan array binding signal (z-score),[3],-0.158
same,glycan array binding signal (z-score),GlcNAc(b1-6)GalNAc,0.085
same,glycan array binding signal (z-score),[4],-0.173
same,glycan array binding signal (z-score),Kdn(a2-3)Gal(b1-3)GalNAc,1.18
same,glycan array binding signal (z-score),Kdn(a2-3)Gal(b1-3)GlcNAc,0.209
same,glycan array binding signal (z-score),Kdn(a2-3)Gal(b1-4)Glc,-0.955
same,glycan array binding signal (z-score),Kdn(a2-3)Gal(b1-4)GlcNAc,2.1
same,glycan array binding signal (z-score),[5],-0.197
same,glycan array binding signal (z-score),Kdn(a2-6)Gal(b1-4)GlcNAc,1.03
same,glycan array binding signal (z-score),[6],0.307
same,glycan array binding signal (z-score),[7],-0.62
same,glycan array binding signal (z-score),Man(a1-2)Man(a1-3)Man,-0.318
same,glycan array binding signal (z-score),[8],0.3
same,glycan array binding signal (z-score),[9],0.665
same,glycan array binding signal (z-score),[10],-0.7
same,glycan array binding signal (z-score),[11],0.664
same,glycan array binding signal (z-score),[12],-0.197
same,glycan array binding signal (z-score),[13],0.244
same,glycan array binding signal (z-score),Man(a1-3)[Man(a1-6)]Man,0.337
same,glycan array binding signal (z-score),[14],-0.492
same,glycan array binding signal (z-score),[15],-1.06
same,glycan array binding signal (z-score),[16],-0.805
same,glycan array binding signal (z-score),[17],-0.032
same,glycan array binding signal (z-score),[18],-0.39
same,glycan array binding signal (z-score),Man(a1-6)Man,-0.439
same,glycan array binding signal (z-score),Man(b1-4)GlcNAc,0.456
same,glycan array binding signal (z-score),MurNAc(b1-4)GlcNAc,-0.235
same,glycan array binding signal (z-score),Neu5Ac(a2-3)Gal,0.191
same,glycan array binding signal (z-score),[19],0.245
same,glycan array binding signal (z-score),[20],-0.134
same,glycan array binding signal (z-score),[21],0.851
same,glycan array binding signal (z-score),[22],0.664
same,glycan array binding signal (z-score),[23],0.27
same,glycan array binding signal (z-score),[24],0.435
same,glycan array binding signal (z-score),[25],-0.198

# Reprinted at random: 2 records from the list, in no set order.
binder,measurement,setting,value
B1,glycan array binding signal (z-score),[2],-0.29
same,glycan array binding signal (z-score),MurNAc(b1-4)GlcNAc,-0.235
